Assay results reported in publication PMC6561018, “Structure and Properties of a Natural Competence-Associated Pilin Suggest a Unique Pilus Tip-Associated DNA Receptor” (mBio, 2019).
These are yes or no findings as the source states them, for the method shown. Values belong to the binder of their own block, whether it stands above or below them.

Legend:
[1] = target: T1, PilA3 soluble domain (residues 33 to 233), Thermus thermophilus HB27 (Thermus thermophilus HB27) (UniProt Q72JC2); experiment: pull-down; affinity tag assay on a StrepTrap HP column holding the Strep-tag II pilin; 3 mg ComZ and 2 mg pilin incubated in 25 mM Tris-HCl pH 8.0, 200 mM NaCl, 5% glycerol at 4°C for about 30 min; eluted proteins examined by SDS-PAGE; both purified
T1 sequence: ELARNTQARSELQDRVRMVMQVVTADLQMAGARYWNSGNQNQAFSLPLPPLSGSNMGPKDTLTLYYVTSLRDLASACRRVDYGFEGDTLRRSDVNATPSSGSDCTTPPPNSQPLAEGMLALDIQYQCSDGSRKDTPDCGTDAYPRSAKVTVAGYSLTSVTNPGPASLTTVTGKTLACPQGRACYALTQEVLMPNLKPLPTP

[2] = target: T2, ComZ (residues 31 to 554), Thermus thermophilus HB27 (Thermus thermophilus HB27) (UniProt Q8KPZ1); experiment: SEC; SEC during purification of ComZ alone; HiLoad 16/600 Superdex 75 PG, 25 mM Tris-HCl pH 8.0, 200 mM NaCl, 5% glycerol, 25°C; both purified
T2 sequence: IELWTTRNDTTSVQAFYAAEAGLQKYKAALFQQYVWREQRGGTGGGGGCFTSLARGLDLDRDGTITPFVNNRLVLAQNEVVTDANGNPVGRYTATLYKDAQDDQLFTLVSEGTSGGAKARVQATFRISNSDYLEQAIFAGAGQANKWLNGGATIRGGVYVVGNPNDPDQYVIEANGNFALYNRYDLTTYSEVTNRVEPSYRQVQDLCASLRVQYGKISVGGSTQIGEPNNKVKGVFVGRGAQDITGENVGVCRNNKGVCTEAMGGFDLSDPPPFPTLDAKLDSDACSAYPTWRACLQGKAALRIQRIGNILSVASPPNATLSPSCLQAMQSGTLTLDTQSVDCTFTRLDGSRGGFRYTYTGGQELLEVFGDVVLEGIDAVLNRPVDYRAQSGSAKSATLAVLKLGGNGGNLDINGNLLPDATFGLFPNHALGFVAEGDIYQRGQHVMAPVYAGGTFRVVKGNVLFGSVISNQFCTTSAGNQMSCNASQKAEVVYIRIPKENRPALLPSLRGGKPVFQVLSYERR

[3] = target: T2, ComZ (residues 31 to 554), Thermus thermophilus HB27 (Thermus thermophilus HB27); experiment: condition: 3 mg of ComZ and 2 mg of each pilin loaded; pull-down; reverse affinity tag assay on a HisTrap HP (Ni) column holding His-tagged ComZ; ComZ, PilA2 and PilA3 incubated together in 25 mM Tris-HCl pH 8.0, 200 mM NaCl, 5% glycerol at 4°C; eluted proteins examined by SDS-PAGE; both purified
[4] = target: T2, ComZ (residues 31 to 554), Thermus thermophilus HB27 (Thermus thermophilus HB27); experiment: condition: 0.036 μmol of ComZ and 0.027 μmol of PilA1 loaded; SEC; HiLoad 16/600 Superdex 200 PG, 1 ml/min, 25 mM Tris-HCl pH 8.0, 200 mM NaCl, 5% glycerol; proteins incubated together at 4°C for 30 min before the run; each protein also run alone; peaks checked by SDS-PAGE; both purified

binding [2]: no binding
B1: ComZ (residues 31 to 554), Thermus thermophilus HB27 (domain or fragment, UniProt Q8KPZ1 31-554)
chain: T2 sequence
binding [1]: no binding (tested: 3 mg of ComZ and 2 mg of PilA3 loaded)

binding [3]: no binding
B2: PilA3 soluble domain (residues 33 to 233), Thermus thermophilus HB27 (domain or fragment, UniProt Q72JC2 33-233, looked up)
chain: T1 sequence
notes: Synthetic gene (GeneArt), codon-optimised for E. coli, in pET-22b (BamHI/XhoI); source: E. coli Lemo21(DE3), purified (StrepTrap HP, SEC); not shown: Strep-tag II, C-terminal, kept

binding [4]: no binding
B3: PilA1 soluble domain (residues 30 to 156), Thermus thermophilus HB27 (domain or fragment, UniProt Q72JC4 30-156)
chain: SPNRLALDQAARSLATQVTRARLEAIRRNAFVGLQVFTEGAGGYLLFVDQNANRRYDPGEEFGATHFGQGNWARVRLDPEKSALGNMPLLFDPRGIPAKPITATLVLTSGGATRKVVISQQGRARLE
